PubChem BioAssay AID602196 – INSERM – 2012
Purpose: 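Knock-downs that protect lung cancer cells from cisplatin or sensitise them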. Cells: human A549 lung cancer cells. Knock-down reagent: siRNA pair against human genes. Time to read-out: 48 h transfection before cisplatin; time from cisplatin to read-out not stated. Challenge: cisplatin at a dose killing half of control-siRNA cells; exact dose and duration not given. Measurement: 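Cisplatin cell death as a shift from the 50% death seen with control siRNA; siRNAs toxic or growth-blocking alone scored 0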. Reading the numbers: two-siRNA summed score (-2 to +2): higher = both siRNAs protect from cisplatin killing; -2 means both sensitise; mean protection from cisplatin (shift in death) and protection from cisplatin (shift in death), siRNA C and protection from cisplatin (shift in death), siRNA D: higher = protection from cisplatin killing. Call rule: 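Each siRNA scores 0 if harmful alone by LDH or WST-1, otherwise +1 if it reduces and -1 if it increases cisplatin killing; a gene is active when both siRNAs agree (sum +2 or -2)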. Meaning of the calls: active = both siRNAs shift cisplatin killing the same way; inactive = no consistent shift, or siRNA harmful alone.
In all, the deposit lists about 23,000 reagents; shown is a part drawn at random. 455 of them (2%) count as active. 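Active includes both protection and sensitisation; some change values fall well beyond the stated -50 to +50 range.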 A number with no mark means an inactive call. Reagent sequences are not shown. Not stated in the record: the amount of reagent.

Gene	two-siRNA summed score (-2 to +2)	mean protection from cisplatin (shift in death) (%)	protection from cisplatin (shift in death), siRNA C (%)	protection from cisplatin (shift in death), siRNA D (%)
SIPA1L3	0	8.1	8.1	8.2
IMPG1	0	9.8	16	3.6
RB1	0	1.4	-8.4	11.2
TSPEAR-AS2	0	-1.5	-1.4	-1.6
BEX1	1	16.1	17.8	14.4
ALDOA	0	6.2	-0.9	13.4
DEPDC1	-1	-1.5	-18.8	15.8
LTA4H	0	6.6	2.8	10.4
HHATL	0	15.6	8.8	22.3
ZNF429	0	3.8	1.9	5.7

The list goes on; the last 2 above are carried over.
Gene	two-siRNA summed score (-2 to +2)	mean protection from cisplatin (shift in death) (%)	protection from cisplatin (shift in death), siRNA C (%)	protection from cisplatin (shift in death), siRNA D (%)
HHATL	0	15.6	8.8	22.3
ZNF429	0	3.8	1.9	5.7
LOC389908 (retired record)	0	5.3	2.1	8.5
NCKAP1	-1	-29.5	-35.9	-23.1
PAFAH1B1	0	17.2	-0.4	34.8
KIAA2013	0	9.6	9.1	10.1
ARPC4	0	-6.8	-1.8	-11.9
ZFHX4	-1	-9.1	0.5	-18.7
METTL27	0	2.5	15.5	-10.4
TLNRD1	-1	-4.5	-10.2	1.1
TCP10L3	0	22.6	30.2	15
PPP6R2	1	9.9	22.9	-3.2
LAMTOR2	0	4.9	0.9	8.9
GRM4	-1	-9.4	-29.1	10.3
LOC388828	0	24.3	26	22.7
